Residue numbers refer to the chain shown, from its start. No constants are given. Whether binding was seen depends on the method and setting. Some binding calls cover weakened binding; strength is not graded here.
T1: human DLL3 (UniProt Q9NYJ7 27-492)
T1 chain: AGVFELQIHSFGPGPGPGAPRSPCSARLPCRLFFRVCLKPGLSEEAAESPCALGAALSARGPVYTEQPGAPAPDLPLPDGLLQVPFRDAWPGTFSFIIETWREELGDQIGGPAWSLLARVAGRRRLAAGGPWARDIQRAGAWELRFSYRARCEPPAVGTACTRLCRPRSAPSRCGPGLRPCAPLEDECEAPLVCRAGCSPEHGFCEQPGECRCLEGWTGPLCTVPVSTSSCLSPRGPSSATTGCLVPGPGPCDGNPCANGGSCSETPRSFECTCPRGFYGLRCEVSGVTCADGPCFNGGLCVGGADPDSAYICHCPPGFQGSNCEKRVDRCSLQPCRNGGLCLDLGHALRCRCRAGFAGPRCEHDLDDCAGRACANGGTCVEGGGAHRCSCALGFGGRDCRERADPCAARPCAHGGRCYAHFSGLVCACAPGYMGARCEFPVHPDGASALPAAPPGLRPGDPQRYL

B1: SC16.117 (antibody, V domains shown)
VH: QVQLKESGPGLVAPSQSLSITCTVSGFSLTNYGVHWVRQPPGKGLEWLGVIWAGGITNYNSALMSRLSISEDNSKSQVFLKMNSLQTDDTAMYYCARNLGPYAMDYWGQGTSVTVSS
VL: DIQMNQSPSSLSASLGDTITITCHVSQNINVWLSWYQQKPGNIPKLLIQKASNLHTGVPSRFSGSGSGTGFTLTISSLQPEDIATYYCQQGQSYPFTFGSGTKLEIK
B2: SC16.131 (antibody, V domains shown)
VH: B1 VH
VL: B1 VL
B3: SC16.129 (antibody, V domains shown)
VH: QVQLKESGPGLVAPSQSLSITCTVSGFSLTDYGVSWIRQPPGKGLEWLGVIWGGGSTYYNSALKSRLSISKDNSKSQVFLELNSLQTDDTAIYYCAKHYGHYAAYWGQGTLVTVSA
VL: DIQMTQSPASQSASLGESVTITCLASQTIGTWLAWYQQKPGKSPQLLIYAATSLADGVPSRFSGSGSGTKFSFKISSLQAEDFVSYYCQQLYSTPYTFGGGTKLEIK
B4: SC16.104 (antibody, V domains shown)
VH: QVQLKESGPDLVQPSQTLSLTCTVSGFSLTFYGVHWVRQPPGKGLEWVGTMGWDDKKYYNSALKSRLSISRDTSKNQVFLKLSSLQTEDTAMYYCTRGGTGFDYWGQGTTLTVSS
VL: QIVLSQSPAILSASPGEKVTMTCRASSSVSYIHWYRQKPGSSPKPWIYATSNLASGVPARFSGSGSGTSYSLTISRVEAEDAATYYCQQWSSNPPTFGAGTKLELK
B5: SC16.63 (antibody, V domains shown)
VH: QVQLQQSGTELLRPGASVKISCKATGYTFSSYWMEWVKQRPGHGLEWIGEILPGSGTTQYNEKFKGKATFTADTSSNTAYMHLSSLTSEDSAVYYCARGTNSLWGQGTLVTVSA
VL: QIVLTQSPAIMSASPGEKVTMTCSASSSVSYMYWYQQKSGTSPKRWIYDTSKLASGVPARFSGSGSGTSYSLTISSMEAEDAATYYCQQWSSNPYTFGGGTKLEIK
B6: SC16.62 (antibody, V domains shown)
VH: EVMLVESGGDLVKPGGSLKLSCAASGFTFSSYAMSWVRQTPEKRLEWVAYISGGGDHIYYPDSVRGRFTISRDNAKDTLYLQMSSLRSEDTALYDCARVRDWYFDVWGAGTTVTVSS
VL: DIKMTQSPSSMYASLGERVTITCKASQDINSFLSWFQRKPGKSPKTLIYRANRLVDGVPSRFTGSGSGQEFSLTISSLEYEDLGIYYCLQYDEFPYTFGGGTKLEIK
B7: SC16.78 (antibody, V domains shown)
VH: EVKLVESGGGLVKPGGSLKLSCAASGFTFGRYVMSWVRQTPEKKLEWVASITSGGTTYYPDSVKGRFTISRDNARNILYLQMSSLRSEDTAMYYCARVYYHYDDIFAYWGQGTLVTVSA
VL: B6 VL with F32Y, R38Q, K42R, T63S, E70D, F71Y, E79D, L83M, Y96F, G100S
B8: SC16.106 (antibody, V domains shown)
VH: QVQLKQSGPGLVAPSQSLFITCTVSGFSLTSYEINWVRQPPGKGLEWLGVIWTGGSTNYNSALISRLSISKDNSKSLVFLKMNSLQTDDTAIYYCVRGVYAMDYWGQGTSVTVSS
VL: B6 VL with F32Y, R38Q, T63S, E70D, F71Y, L83M, Y96F, G100S
B9: SC16.65 (antibody, V domains shown)
VH: QVTLKESGPGILQPSQTLSLTCSFSGFSLSTSGMGVGWIRQPSGKGLEWLALIWWDDVKRYNPALKSRLTISKDASSSQVFLKIASVDTADTATYYCARIASYDYDVVYAMDYWGQGTSVSVSS
VL: QIVLTQSPALMSASPGEKVTMTCSVTSSVSYMYWYQQKPRSSPKPWIYLTSNLASGVPARFSGSGSGTSYSLTISSVEAEDAATYYCQQWRNNPFTFGSGTKVEIK
notes: murine mAb; V regions only
B10: SC16.84 (antibody, V domains shown)
VH: EVQLQQSGPELVKPGASMKISCKASGYSFTGYTMNWVKQSHGKNLEWIGLINPYNGGTTYNQKFKGKATLTVDKSSSTAYMELLSLTSEDSAVYYCALGYYGNYRRYFDVWGAGTTVTVSS
VL: DIQMTQSPSSLSASLGGKVTITCKASQDIKKYIAWYQHKPGKGPRLLIHYTSTLEPGIPSRFSGSGSGRDYSFSISNLEPEDIATYYCLQYDILWTFGGGTKLEIK
B11: SC16.81 (antibody, V domains shown)
VH: B1 VH with G10V, N31S, I56S, E71K, R97K, N98Q, L99G, G100N, P101F
VL: QIVLTQSPAIMSASLGERVTLTCTASSSVSSSYLHWYQQKPGSSPKLWIYSTSNLASGVPTRFSGSGSGTSYSLRISSMEAEDAATYYCHQYNRSPLTFGAGTKLELK
B12: SC16.58 (antibody, V domains shown)
VH: DVQLVESGGGLVQPGGSRKLSCAASGFTFSSFGMHWVRQAPEKGLEWVAYISSGSSNIYYADTVKGRFTISRDNPKNTLFLQMTSLRSEDTAMYYCARGYYGNYDAMDYWGQGTSVTVSS
VL: DIQMTQSPASLSSSVGETVTITCRASENIYSYLAWYQQKQGKSPQLLVYNAKTLAEGVPSRFSGSGSGTQFSLKINSLQPEDFGTYYCQHHYDSPLTFGAGTKLELR
B13: SC16.72 (antibody, V domains shown)
VH: EVQLQQSGPELVKPGASVKMSCKASGYTFTSYVMHWVKQKPGQGLEWIGYINPYNDGTKYNEKFKGKATLTSDKSSSTAYMELSSLTSEDSAVYYCARLRSRAMDYWGQGTSVTVSS
VL: ENVLTQSPAIMSASLGEKVTMSCRASSSVNYMSWYQQKSDASPKLWIYYTSNLAPGVPARFSGSGSGNSYSLTISSMEGEDAATYYCQQFTSSPYTFGGGTKLEIK
B14: SC16.57 (antibody, V domains shown)
VH: EVKLVESGGDLVKPGGSLKLSCAASGFAFSSYDMSWVRQTPEKRLEWVATISSGGSYTYYPDSVKGRFTISRDNVRDTLYLQMSSLRSEDTALYYCARQAIGTYFDYWGQGTTLTVSS
VL: DIVMTQSHKFMSISVGDRVSITCKASQDVSIFVAWYQQKPGQSPKLLIYSASYRYTGVPDRFTGSGSGTDFIFTISSVQAEDLAVYYCQQHYGTPFTFGSGTKLKIR
B15: SC16.73 (antibody, V domains shown)
VH: QVQLQQSGAELMKPGASVKISCKANGYTFSSYWIEWLRQRPGHGLEWIGEILPGSDNSNYNEKFKGKATFTADTSSNTAYMQLSSLTSEESAVYYCTRGLRRDGSYYYVMEHWGQGTSVTVSS
VL: DIQMTQSPSSLSASLGERVSLTCRASQDIGYSLNWLQQEPDGTIKRLIYATSSLDSGVPKRFSGSRSGSDYSLTISSLESEDFVDYYCLQYASSPWTFGGGTKLEIK
B16: SC16.61 (antibody, V domains shown)
VH: EVLLQRSGPDLVKPGASVTIPCKASGYTFTDYNMDWVKQSHGKSLEWIGNINTYNGGTIYNQKFKGKATLTVDKPSSTAYMELRSLTSEDTAVYYCARRLRYGGHYFDYWGQGTALTVSS
VL: DIVMTQSTSSLAMSVGQKVTMSCKSSQSLLNSSNQKNYLAWYQQEPGQSPKLLVSFASTRESGVPDRFTGSGSGTDFTLTISGVQAEDLAVYYCQQHYSIPLTFGAGTKLELK
B17: SC16.80 (antibody, V domains shown)
VH: EVQLQQSGPELVKPGGSKKISCKASGYSFTGYSMNWVKQSHGKNLEWIGLINPYSGGTIYNQKFKGKATLTVDKSSSTAYMELLSLTSEDSAVYYCARRSDYPLVYWGQGTLVTVSA
VL: ETTVTQSPASLSMAIGEKVTIRCITSTDIDDDMIWYQQKPGEPPKLLISEGNTLRPGVPSRFSSSGYGTDFVFTIENMLSEDVADYYCLKRDDLPYTFGGGTQVEIK
B18: SC16.101 (antibody, V domains shown)
VL: B11 VL with L21M, T61A, G67E, R75T, S78N, N93H, L97F, A101S, L107I
V domain: QVTLKESGPGILQPSQTLSLTCSFSGFSLSTSGMGVGWIRQPSGKGLEWLAHIWWDDVKRYNPALKSRLTISKDASSSQVFLKIASVDTAETATYYCAHILDRAYYFDYWGQGTTLTVTS
B19: SC16.79 (antibody, V domains shown)
VH: EVQLQQSGPELVKPGASVKISCKTSGYTFTEYTMHWVKQSHGKSLEWIGGINPNNGGTSYNQKFKGKATLTVDKSSSTAYMELRSLTSEDSAVYYCARGPAWFAYWGQGTLVTVSA
VL: DIVMSQSPSSLAVSAGEKVTMSCKSSQSLLNSRTRKNYLAWYQQKPGQSPKLLIYWASTRESGVPDRFTGSGSGTDFTLTISSVQAEDLAVYYCKQSYNLYTFGGGTKLKIK
B20: SC16.67 (antibody, V domains shown)
VH: EVQLVETGGGLVQPKGSLKLSCAVSAFTFTTYAMNWVRQAPGKGLEWVARIRNKSNNYATYYADSVKDRFTISRDDSQSMLYLQMNNLKIEDTAMYYCVFYYDYVYWGQGTLVTVSA
VL: QAVVTQESALTTSPGETVTLTCRSSTGAVTTSNYANWIQEKPDHLFTGLIGGTNNRAPGVPARFSGSLIGDKAALTITGAQTEDEAIYFCGLWYSNHLVFGGGTKLTVL

Biological target: T1, human DLL3
Experiment: screening on immobilized DLL3 or 293-hDLL3 cells

| binding | Binder |
| --- | --- |
| binds | B1 |
| binds | B2 |
| binds | B3 |

Biological target: DLL3 (UniProt Q9NYJ7)
Experiment: screening on immobilized DLL3 or 293-hDLL3 cells

| binding | Binder |
| --- | --- |
| binds | B4 |
| binds | B5 |
| binds | B6 |
| binds | B7 |
| binds | B8 |
| binds | B9 |
| binds | B10 |
| binds | B11 |
| binds | B12 |
| binds | B13 |
| binds | B14 |
| binds | B15 |
| binds | B16 |
| binds | B17 |
| binds | B18 |
| binds | B19 |
| binds | B20 |

— patent publication US20160015828A1 (AbbVie / Abbott, published 2016)
